Measured values published in PMC9392799.
No constants are given. Whether binding was seen depends on the method and setting. Binding seen in cells or lysates may run through a third protein. Some results given as binding are weak or reduced against the parent protein; the word gives no strength.

The chains behind the UniProt entries cited, without tags or fusion partners. Residues count along the entry.
UniProt Q14694: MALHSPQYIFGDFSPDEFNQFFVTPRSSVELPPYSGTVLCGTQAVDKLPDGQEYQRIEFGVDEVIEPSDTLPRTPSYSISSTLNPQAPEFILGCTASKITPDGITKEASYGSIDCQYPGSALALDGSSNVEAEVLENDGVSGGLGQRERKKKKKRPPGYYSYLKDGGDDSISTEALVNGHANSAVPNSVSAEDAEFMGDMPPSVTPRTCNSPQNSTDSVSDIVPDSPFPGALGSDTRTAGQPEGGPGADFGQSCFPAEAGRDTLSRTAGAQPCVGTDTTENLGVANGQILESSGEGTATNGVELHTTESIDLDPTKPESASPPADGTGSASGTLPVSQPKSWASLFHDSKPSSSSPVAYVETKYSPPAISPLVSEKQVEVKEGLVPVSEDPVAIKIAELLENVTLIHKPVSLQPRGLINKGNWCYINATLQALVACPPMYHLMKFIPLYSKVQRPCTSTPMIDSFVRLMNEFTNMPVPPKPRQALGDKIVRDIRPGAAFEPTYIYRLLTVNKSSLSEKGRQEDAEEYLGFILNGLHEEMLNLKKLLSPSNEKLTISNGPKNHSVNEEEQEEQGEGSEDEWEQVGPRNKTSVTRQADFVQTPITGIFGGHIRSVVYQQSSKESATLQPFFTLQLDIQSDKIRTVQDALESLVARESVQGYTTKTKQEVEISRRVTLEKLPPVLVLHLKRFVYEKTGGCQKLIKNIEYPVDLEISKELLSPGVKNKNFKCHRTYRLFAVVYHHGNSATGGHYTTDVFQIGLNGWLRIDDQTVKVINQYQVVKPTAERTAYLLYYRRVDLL
Tau307-326K peptide (P10636, residues 624-643): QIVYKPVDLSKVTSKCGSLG
Tau341-378K peptide (P10636, residues 658-695): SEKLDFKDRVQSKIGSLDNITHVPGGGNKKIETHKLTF

Biological target: USP10 from the plasmid EGFP-USP10 (GV 230) (UniProt Q14694)
Experiment: co-IP; in vitro competition: anti-Tau5 precipitate from N2a cells co-expressing USP10 and Tau441 incubated with 1 mM synthetic peptide (each alone or the two together) for 30 min at room temperature; USP10 left on the precipitate blotted; only the binder purified

Substance	binding
Tau307-326K peptide (from UniProt P10636-8 307-326)	binds
Tau341-378K peptide (from UniProt P10636-8 341-378)	binds
